According to publication PMC3284568:
Results are given in words; binding and its absence hold for the method and conditions named. Binding seen in cells or lysates may run through a third protein. Some entries that bind do so weakly or less than the wild type.

Sequences of proteins named here, by UniProt entry; tags and fusion partners are left off. Residues count along the entry.
UniProt Q9NPQ8: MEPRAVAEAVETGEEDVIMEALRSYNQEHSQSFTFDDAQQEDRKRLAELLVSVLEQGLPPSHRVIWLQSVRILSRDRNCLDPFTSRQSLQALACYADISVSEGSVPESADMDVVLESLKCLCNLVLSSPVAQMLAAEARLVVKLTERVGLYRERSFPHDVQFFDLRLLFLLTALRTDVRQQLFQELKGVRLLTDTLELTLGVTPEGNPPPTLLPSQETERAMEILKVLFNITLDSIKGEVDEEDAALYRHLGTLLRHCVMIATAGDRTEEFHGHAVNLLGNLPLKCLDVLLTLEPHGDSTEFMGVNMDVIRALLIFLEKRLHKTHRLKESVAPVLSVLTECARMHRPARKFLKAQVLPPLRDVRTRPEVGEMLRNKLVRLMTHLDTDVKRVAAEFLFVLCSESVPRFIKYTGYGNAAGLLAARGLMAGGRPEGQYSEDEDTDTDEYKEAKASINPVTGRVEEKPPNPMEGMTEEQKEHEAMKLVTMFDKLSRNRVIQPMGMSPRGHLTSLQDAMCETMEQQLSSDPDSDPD
UniProt P13595, residues 20-1115: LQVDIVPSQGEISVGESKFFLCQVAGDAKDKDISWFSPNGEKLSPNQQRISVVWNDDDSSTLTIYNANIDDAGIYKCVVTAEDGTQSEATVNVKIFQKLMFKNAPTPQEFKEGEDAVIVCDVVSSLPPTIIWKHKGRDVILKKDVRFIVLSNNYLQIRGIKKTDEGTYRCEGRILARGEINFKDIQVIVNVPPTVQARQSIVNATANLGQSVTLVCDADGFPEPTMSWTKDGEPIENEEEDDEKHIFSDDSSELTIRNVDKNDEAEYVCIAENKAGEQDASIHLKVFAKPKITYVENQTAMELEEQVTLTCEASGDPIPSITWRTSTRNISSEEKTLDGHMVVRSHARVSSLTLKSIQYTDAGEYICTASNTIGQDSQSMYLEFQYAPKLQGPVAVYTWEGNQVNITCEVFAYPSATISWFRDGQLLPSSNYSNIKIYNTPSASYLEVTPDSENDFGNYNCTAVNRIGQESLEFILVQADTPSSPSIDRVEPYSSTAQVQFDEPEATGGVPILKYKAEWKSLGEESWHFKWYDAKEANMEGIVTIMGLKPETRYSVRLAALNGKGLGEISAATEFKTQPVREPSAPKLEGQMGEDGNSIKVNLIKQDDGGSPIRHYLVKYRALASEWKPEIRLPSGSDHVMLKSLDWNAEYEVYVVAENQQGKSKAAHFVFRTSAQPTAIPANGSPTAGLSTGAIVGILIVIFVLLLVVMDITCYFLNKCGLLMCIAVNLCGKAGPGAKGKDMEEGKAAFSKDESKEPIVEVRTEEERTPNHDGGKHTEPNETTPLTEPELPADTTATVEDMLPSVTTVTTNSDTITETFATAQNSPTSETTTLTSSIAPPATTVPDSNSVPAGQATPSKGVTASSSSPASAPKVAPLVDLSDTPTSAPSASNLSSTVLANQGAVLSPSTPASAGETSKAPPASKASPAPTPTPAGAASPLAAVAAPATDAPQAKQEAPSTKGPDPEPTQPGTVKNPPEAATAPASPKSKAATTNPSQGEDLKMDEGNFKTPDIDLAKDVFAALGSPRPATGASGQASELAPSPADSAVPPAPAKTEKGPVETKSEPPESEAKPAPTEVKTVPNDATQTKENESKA

Molecular target: Ric8A-GST (human recombinant, full length) (human) (UniProt Q9NPQ8)
Assay: pull-down; cleared female mouse brain extract incubated with recombinant Ric8A-GST (3 h, RT) or purified GST, then GSH beads (1 h, 4°C); NCAM detected by Western blot; only the target purified

Q: How did the binding turn out when “NCAM180 (endogenous, mouse brain extract) (from UniProt P13595-1 20-1115)” was run?
A: binds
